Source: patent US20060240474A1, “Peptides able to switch between two structural states and their use” (UNIVERSITY OF SUSSEX, priority 2002, published 2006)
At least one compound was matched to its structure with a doubt left. Where a SMILES comes first, the peptide text is derived from it.

Assay: Thermal unfolding followed by CD spectroscopy
Type: physicochemical
Settings: 100 μM peptide
Description: Circular dichroism spectroscopy. CD measurements were made using a JASCO J-715 spectropolarimeter fitted with a Peltier temperature controller. Peptide solutions were prepared in 25 mM potassium phosphate buffer at pH 7 and were examined in 1 mm or 1 cm quartz cuvettes (with stirring). Spectra were recorded at 5° C. using 1 nm intervals, a 1 nm bandwidth and 4 sec response time. Thermal unfolding curves were recorded through 1° C. min^−1 ramps using a 2 nm bandwidth, averaging the signal for 16 s every 1° C. intervals. After baseline correction, ellipticities in mdeg were converted to molar ellipticities (deg cm^2 dmol-res-^−1) by normalising for the concentration of peptide bonds.

SMILES: CC[C@H](C)[C@H](NC(=O)[C@H](CCCCN)NC(=O)[C@H](CCC(N)=O)NC(=O)[C@H](CCC(=O)O)NC(=O)[C@H](CC(C)C)NC(=O)[C@H](C)NC(=O)[C@H](CCCNC(=N)N)NC(=O)[C@H](CCCCN)NC(=O)[C@H](CCCCN)NC(=O)[C@H](C)NC(=O)[C@H](CCC(N)=O)NC(=O)[C@H](C)NC(=O)[C@H](C)NC(=O)[C@H](CCC(N)=O)NC(=O)[C@H](CCCCN)NC(=O)[C@H](CC(C)C)NC(=O)[C@H](CCCNC(=N)N)NC(=O)[C@H](C)NC(=O)[C@@H](NC(=O)[C@H](CCC(=O)O)NC(=O)[C@H](Cc1ccc(O)cc1)NC(=O)[C@H](CCCCN)NC(=O)[C@H](CC(C)C)NC(=O)[C@H](C)NC(=O)[C@H](CCCNC(=N)N)NC(=O)[C@@H](NC(=O)[C@H](CCC(=O)O)NC(=O)CNC(=O)CNC(=O)[C@@H](N)CS)[C@@H](C)CC)[C@@H](C)CC)C(=O)N[C@@H](C)C(=O)N[C@@H](C)C(=O)N[C@@H](CC(C)C)C(=O)N[C@@H](CCC(=O)O)C(=O)NCC(=O)NCC(=O)N[C@@H](CS)C(=O)O [CSP-7] (H-CGGEIRALKYEIARLKQAAQAKKRALEQKIAALEGGC-OH; N-terminus and C-terminus assumed)
- ΔTM, difference in thermal stability between reduced and oxidised forms: about −13 °C
